{"sequences": {"note": "By UniProt entry, the sequences of proteins in these tests, tags left out.", "UniProt Q8NER1, whole entry, looked up": "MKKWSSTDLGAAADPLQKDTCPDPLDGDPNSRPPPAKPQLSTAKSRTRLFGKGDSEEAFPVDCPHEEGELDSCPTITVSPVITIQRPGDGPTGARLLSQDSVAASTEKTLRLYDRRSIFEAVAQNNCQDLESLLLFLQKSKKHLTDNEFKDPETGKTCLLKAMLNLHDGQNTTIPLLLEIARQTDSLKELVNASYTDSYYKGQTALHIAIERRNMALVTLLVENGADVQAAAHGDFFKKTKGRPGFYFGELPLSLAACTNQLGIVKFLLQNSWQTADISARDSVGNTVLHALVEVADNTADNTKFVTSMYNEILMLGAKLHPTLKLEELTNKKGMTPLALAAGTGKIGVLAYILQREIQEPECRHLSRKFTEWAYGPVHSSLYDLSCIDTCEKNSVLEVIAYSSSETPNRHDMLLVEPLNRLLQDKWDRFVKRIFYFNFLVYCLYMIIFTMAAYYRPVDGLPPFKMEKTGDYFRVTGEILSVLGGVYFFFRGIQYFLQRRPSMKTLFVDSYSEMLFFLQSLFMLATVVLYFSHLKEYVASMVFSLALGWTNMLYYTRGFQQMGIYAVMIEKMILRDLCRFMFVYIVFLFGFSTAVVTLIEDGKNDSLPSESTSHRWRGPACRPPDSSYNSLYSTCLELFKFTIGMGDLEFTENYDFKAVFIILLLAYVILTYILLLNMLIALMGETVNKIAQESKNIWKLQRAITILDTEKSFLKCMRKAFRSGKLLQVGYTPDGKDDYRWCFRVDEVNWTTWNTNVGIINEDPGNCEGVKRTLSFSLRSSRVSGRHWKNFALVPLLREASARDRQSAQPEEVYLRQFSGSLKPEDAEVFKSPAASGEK"}, "source": "PubChem BioAssay AID540275", "about": "(National Center for Advancing Translational Sciences (NCATS), 2011)", "note": "In all, about 320,000 compounds went through this assay and about 620 (0.19%) were called active. Inconclusive results, whose numbers are uncertain, are shown with a selection of clear calls. Cut-off read from the data, not from the text of the source: active = activation above about 80%; inconclusive = between about 30% and that limit; inactive = weaker than that.", "data": [{"target": "Transient receptor potential cation channel subfamily V member 1 (Homo sapiens) (UniProt Q8NER1)", "assay": "HTS Assay for Compounds that Act as Agonists of the Vanilloid Receptor 1; note: 0% is about no effect", "conditions": "TRPV1-expressing cells, Fluo-8 calcium influx, agonist mode; at 8.33 µM, active compounds read high", "in_short": "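Fluo-8 calcium influx in TRPV1-expressing cells, kinetic read (ex 480/em 520 nm). Compound added and read 3 min for agonist activity, followed by capsaicin at EC20 final and 2 min further read for enhancement.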", "values": [{"smiles": "CN(CC(=O)Nc1cccc(F)c1)C(=O)/C=C/c1cc(Br)ccc1OC(F)F", "activation": "inconclusive: 37.3%"}, {"smiles": "COc1ccccc1CN(C)CC(=O)Nc1ccc(Cl)cc1F", "activation": "inconclusive: 52%"}, {"smiles": "Cc1nc2ccccc2c(=O)n1/N=C/c1ccc(F)cc1", "activation": "inconclusive: 66.3%"}, {"smiles": "CCOC(=O)C1(CC2CCCCO2)CCN(C(=O)Nc2ccc(SC)cc2)CC1", "note": "(stereo not given)", "activation": "inconclusive: 51.8%"}, {"smiles": "Cc1nc(-c2ccc(F)cc2)c(CC(=O)N2CCN(S(=O)(=O)c3ccc(F)cc3)CC2)s1", "activation": "inconclusive: 48.5%"}, {"smiles": "N=C(N)SCc1cn(-c2ccccc2)nc1-c1ccc(Br)cc1", "activation": "inactive: 0.0455%"}, {"smiles": "O=C(C1CCCN(S(=O)(=O)c2cccc3nonc23)C1)N1CCC(Cc2ccccc2)CC1", "note": "(stereo not given)", "activation": "inconclusive: 42.7%"}, {"smiles": "CCCCc1ccc(N/C(N)=N/c2nc(C)cc(C)n2)cc1", "activation": "inactive: 23.9%"}, {"smiles": "Clc1ccc(-c2cn3ccccc3n2)cc1", "activation": "inconclusive: 30%"}, {"smiles": "Cc1[nH]c(=O)[nH]c(=O)c1S(=O)(=O)N1CCCC(C(=O)NCCc2ccccc2)C1", "note": "(stereo not given)", "activation": "inactive: -0.0521%"}, {"smiles": "CC1CC(C)CN(C(=O)/C(=C\\c2ccccc2)c2ccccc2)C1", "note": "(stereo not given)", "activation": "inconclusive: 40.7%"}, {"smiles": "Cc1ccc(NC(=O)c2ccc(C(C)(C)C)cc2)cc1[N+](=O)[O-]", "activation": "inconclusive: 33.9%"}, {"smiles": "O=C(NCCc1ccc(C(F)(F)F)cc1)c1ccc(Cl)nc1", "activation": "inconclusive: 38.2%"}, {"smiles": "COc1ccc(C(=O)Nc2ccc(N3CCC(C)CC3)cc2)cc1Br", "activation": "inconclusive: 33.3%"}, {"smiles": "COc1cccc(C(=O)Nc2cccc(-c3ccccc3)c2)c1", "activation": "inconclusive: 34.1%"}, {"smiles": "CCc1cccc(NC(=O)COc2ccccc2)c1", "activation": "inconclusive: 34.6%"}, {"smiles": "NS(=O)(=O)c1cccc(NC(=O)CCSc2ccc(Cl)cc2)c1", "activation": "inconclusive: 43.3%"}, {"smiles": "O=C(CC1CCCC1)N1CCCC(Nc2cccc(F)c2)C1", "note": "(stereo not given)", "activation": "active: 83.7%"}, {"smiles": "CCOC(=O)N1CCC(Nc2c([N+](=O)[O-])cc(C(=O)O)cc2[N+](=O)[O-])CC1", "activation": "inactive: -4.06%"}, {"smiles": "N#Cc1cccc2c1-c1ccccc1/C2=N/NC(N)=S", "activation": "inactive: -3.04%"}, {"smiles": "O=C(Oc1ccccc1)N1CCN(c2ccccc2F)CC1", "activation": "inconclusive: 62%"}, {"smiles": "Cc1ccc(NC(=O)CN(C)C(=O)c2cccc(S(=O)(=O)NCc3ccco3)c2)cc1", "activation": "inactive: -2.12%"}, {"smiles": "CCC(C)N1C(=O)CN(C2CCCCCC2)C(=O)C1c1ccccc1F", "note": "(stereo not given)", "activation": "inconclusive: 35.9%"}, {"smiles": "O=C(CCN1CCN(c2ccccc2F)CC1)c1ccc(Br)cc1", "activation": "inconclusive: 31.3%"}, {"smiles": "O=C(CSc1nc2ccccc2c(=O)n1Cc1ccc(F)cc1)NCc1cccs1", "activation": "inactive: 13.9%"}, {"smiles": "CN(C)c1ccc(N=Cc2nc(-c3ccccc3)oc2OC(=O)c2cccc(Cl)c2)cc1", "activation": "active: 80.1%"}, {"smiles": "Cc1ccc(S(=O)(=O)NC(Cc2ccccc2)C(=O)NN)cc1", "note": "(stereo not given)", "activation": "inactive: -2.77%"}, {"smiles": "O=C(c1ccccc1)c1cc(-c2ccccc2)on1", "activation": "inactive: 20.3%"}, {"smiles": "Cc1cccc(C)c1NC1=C(Cl)C(=O)OC1OC(=O)c1ccccc1", "note": "(stereo not given)", "activation": "inactive: 1.11%"}, {"smiles": "CC(=O)Nc1sc(N/N=C/c2ccc(C)cc2)nc1-c1ccc(C)cc1", "activation": "inactive: 4.56%"}, {"smiles": "CC(=O)NCCOc1nc(N2CCCCC2)nc(N2CCCCC2)n1", "activation": "inconclusive: 78.3%"}, {"smiles": "O=C(CSc1ncc(-c2ccccc2)n1C1CCCC1)N1CCc2ccccc21", "activation": "inconclusive: 49.6%"}, {"smiles": "CCc1nnc(NC(=O)CSc2nc3cc(OC)c(OC)cc3cc2C)s1", "activation": "inconclusive: 30.4%"}, {"smiles": "COc1cccc(CN2CCN(C(=O)c3ccc(-c4ccccc4)cc3)CC2)c1OC", "activation": "inactive: 10.2%"}, {"smiles": "COc1ccc2oc(C(=O)N3CCN(C(c4ccccc4)c4ccccc4)CC3)c(C)c2c1", "activation": "inconclusive: 70.6%"}, {"smiles": "CCCCOC(=O)c1ccc(Nc2ccc([N+](=O)[O-])cn2)cc1", "activation": "inconclusive: 44.5%"}, {"smiles": "O=[N+]([O-])c1ccc(S(=O)(=O)Nc2nnc(C(F)(F)F)s2)cc1", "activation": "inactive: -0.1%"}, {"smiles": "COc1ccc([N+](=O)[O-])cc1NC(=O)CSCc1cc(C)cc(C)c1", "activation": "inconclusive: 44.8%"}, {"smiles": "Cc1cccc(NC(=O)Cn2c(O)c(N=NC(=O)c3ccccc3O)c3ccccc32)c1", "activation": "inactive: -0.0239%"}, {"smiles": "COc1ccc(OC)c(NC(=O)C2CCCN(S(C)(=O)=O)C2)c1", "note": "(stereo not given)", "activation": "inactive: 4.17%"}, {"smiles": "O=C(CN1C(=O)CCC1=O)Nc1nc(-c2ccccn2)cs1", "activation": "inactive: 0.856%"}, {"smiles": "CCOC(=O)c1cc2oc(C)cc2n1CC(=O)OC1CCCCC1", "activation": "inconclusive: 45.6%"}, {"smiles": "CCn1c(SCC(=O)Nc2ccc3c(c2)n(C)c(=O)n3C)nnc1-c1ccncc1", "activation": "inconclusive: 76.6%"}, {"smiles": "Cc1cc(C)nc(N2CCC(C(=O)Nc3ccc4c(c3)OCO4)CC2)n1", "activation": "inactive: 13.3%"}, {"smiles": "CCOC(=O)c1ccc(NC(=O)Nc2ccc(F)cc2)cc1", "activation": "inconclusive: 54.7%"}, {"smiles": "O=C(CCc1ccccc1)NCCc1cccs1", "activation": "inconclusive: 41.3%"}, {"smiles": "COc1ccc(OC)c(C2C(C(=O)Nc3cccnc3)=C(C)NC3=C2C(=O)CCC3)c1", "note": "(stereo not given)", "activation": "inactive: -1.5%"}, {"smiles": "COc1ccc(NC(=O)CC2CCCC2)cc1OC", "activation": "inconclusive: 30.5%"}, {"smiles": "Cc1ccc(NC(=O)CN2CCCCC2)c2c1CC(C)(C)O2", "activation": "inconclusive: 31.1%"}, {"smiles": "COc1ccc(S(=O)(=O)N/N=C(/C)c2ccc(Cl)cc2)cc1", "activation": "inconclusive: 31.3%"}, {"smiles": "N#Cc1ccc(OCc2nnc(SCC(=O)c3ccccc3)n2-c2ccccc2)cc1", "activation": "inactive: 5.05%"}, {"smiles": "O=C(Cc1ccccc1[N+](=O)[O-])NCc1ccc(Cl)cc1Cl", "activation": "inconclusive: 35.4%"}, {"smiles": "CCOc1ccccc1OCC(=O)OCC(=O)c1c(N)n(CC(C)C)c(=O)n(C)c1=O", "activation": "inactive: 0.833%"}, {"smiles": "CC(C)(C)C1CCC(C(=O)OCC(=O)N2CCN(C(=O)c3ccco3)CC2)CC1", "note": "(stereo not given)", "activation": "inconclusive: 60.7%"}, {"smiles": "Cc1ncc(CSc2ccc(Cl)cc2)c(CO)c1O", "activation": "inconclusive: 54.8%"}, {"smiles": "CCOc1ccccc1NC(=O)C(C)SCc1ccccc1", "note": "(stereo not given)", "activation": "inconclusive: 36.4%"}, {"smiles": "Cc1ccsc1C(=O)Nc1ccc(S(=O)(=O)N2CCOCC2)cc1", "activation": "inactive: 5.73%"}, {"smiles": "COC(=O)c1cc(-c2cccc(OC)c2)on1", "activation": "inconclusive: 32.2%"}, {"smiles": "COCCNC(=S)N1CCC(c2nc(-c3ccc(N(C)C)cc3)no2)CC1", "activation": "inconclusive: 46.9%"}, {"smiles": "c1ccc2c(c1)[nH]c1c(N3CCC4(CC3)OCCO4)ncnc12", "activation": "inconclusive: 46.2%"}, {"smiles": "O=C(NC(=S)NCCC1=CCCCC1)c1cncc(Br)c1", "activation": "inconclusive: 35.5%"}, {"smiles": "CCOC(=O)[C@H]1[C@H]2COc3ccc(OC)cc3[C@@H]2N2C(=O)c3cc(C)ccc3NC(=O)[C@@]12C", "activation": "active: 98.7%"}, {"smiles": "Cc1c(Cl)cccc1NC(=S)NCc1ccccc1Cl", "activation": "inconclusive: 43.3%"}, {"smiles": "COC(=O)c1csc2c(C(F)(F)F)cc(N3CCN(C(=O)Nc4ccccc4)CC3)nc12", "activation": "inconclusive: 61.9%"}, {"smiles": "CC(C)c1c(C(=O)N/N=C/c2ccccc2C(=O)O)nnn1-c1nonc1N", "activation": "inconclusive: 30.9%"}, {"smiles": "O=C(COC(=O)C1CCN(c2ccc(C(F)(F)F)cn2)CC1)NCc1ccccc1", "activation": "inconclusive: 37.6%"}, {"smiles": "Cc1ccc(S(=O)(=O)N2CC(O)C[C@H]2C(=O)OCC(=O)Nc2ccc(N3CCOCC3)cc2)cc1C", "note": "(stereo not given in full)", "activation": "inactive: -0.193%"}, {"smiles": "CCc1ccc2oc(C(=O)Nc3cccnc3)c(C)c2c1", "activation": "active: 89.2%"}, {"smiles": "CC(SCc1ccccc1)C(=O)Nc1ccccc1F", "note": "(stereo not given)", "activation": "inactive: 6.89%"}, {"smiles": "CCCCCCCCCCOC(=O)Cn1c(COc2ccccc2C)[n+](C)c2ccccc21", "activation": "inactive: 4.33%"}, {"smiles": "Cc1ccccc1-c1nsc(SCC(=O)NCc2ccc3c(c2)OCO3)n1", "activation": "inconclusive: 41.9%"}, {"smiles": "Cc1cc(N2CCN(C(=O)c3ccco3)CC2)n2nc(-c3cccc(F)c3)cc2n1", "activation": "inconclusive: 35.8%"}, {"smiles": "CC(C)(C)c1ccc(OCC(=O)NCc2ccco2)cc1", "activation": "inconclusive: 64%"}, {"smiles": "Cc1noc(C)c1COc1ccccc1C(=O)N(C)Cc1ccc(C(C)(C)C)cc1", "activation": "inactive: 24.8%"}, {"smiles": "COc1ccccc1N=c1oc2cc(O)ccc2cc1C(=O)NCC1CCCO1", "note": "(stereo not given)", "activation": "inconclusive: 36.5%"}, {"smiles": "CCOC(=O)c1cnc(-n2nc(C)cc2C)nc1Nc1ccc(C)cc1", "activation": "inconclusive: 68.1%"}, {"smiles": "CC(C)Cn1c(SCC(=O)N2CCOCC2)nc2ccccc2c1=O", "activation": "inconclusive: 64.3%"}, {"smiles": "CN(C)CC(=O)N1c2ccccc2CCc2ccc(NC(=O)c3ccc(N)cc3)cc21", "activation": "inactive: -3.04%"}, {"smiles": "CCc1nn2c(NCCCO)cc(C)nc2c1-c1ccc(F)cc1", "activation": "inconclusive: 39%"}, {"smiles": "FC(F)Oc1ccc(NC(=S)NNc2ccnc3cc(Cl)ccc23)cc1", "activation": "inactive: 5.13%"}, {"smiles": "S=C(Nc1ccc(Br)cc1)N1CCn2cccc2C1c1cccnc1", "note": "(stereo not given)", "activation": "inconclusive: 30.6%"}, {"smiles": "O=C(Nc1ccc2ccccc2c1)c1cnccn1", "activation": "inconclusive: 45.9%"}, {"smiles": "Cc1cc(=O)n2[nH]cc(-c3ccccc3)c2n1", "activation": "inactive: 3.13%"}, {"smiles": "CCCCCCC(=O)Nc1ccc(Cl)cn1", "activation": "inconclusive: 42%"}, {"smiles": "COc1ccc(CN2CCN(C(=O)CN3C(=O)C4C5C=CC(C5)C4C3=O)CC2)c(OC)c1OC", "note": "(stereo not given)", "activation": "inactive: -3.83%"}, {"smiles": "CCOc1cc(NC(=S)NCC2CCCO2)c(OCC)cc1NC(=O)c1ccc(OC)cc1", "note": "(stereo not given)", "activation": "inconclusive: 54.2%"}, {"smiles": "COC(=O)c1c(-c2ccc(F)cc2)csc1NC(=O)C1CCCO1", "note": "(stereo not given)", "activation": "inconclusive: 32%"}, {"smiles": "Fc1ccc(-c2csc(-c3ccncc3)n2)cc1", "activation": "inconclusive: 30.3%"}, {"smiles": "O=C(N/N=C/c1ccc(O)c(Br)c1)c1cc2c(ccc3ccccc32)o1", "activation": "inactive: 8.85%"}, {"smiles": "CCc1ccc(C(=O)CSc2nc3cc(S(=O)(=O)N4CCOCC4)ccc3n2CC)cc1", "activation": "inconclusive: 68.7%"}]}]}
